Reference: the supplement of paper PMC12889115
The list shows a part of the results. Values are raw readings; no control value is given beside them.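 Primary screen: polymyxin B was added at a level permeabilizing Salmonella outer membranes while sparing inner membranes. DMSO wells, both with and without polymyxin B, established maximum growth. Plate-to-plate variation meant each plate was ranked on its own, and the lowest-OD600 compounds were selected as hits.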

Test system: Salmonella enterica serovar Typhimurium SL1344
Assay: bacterial growth OD600 after 18 h with compound and polymyxin B; higher = more bacterial growth (less inhibition)
Conditions: 50 µM, Mueller-Hinton broth

Structure (SMILES)	bacterial growth OD600 (polymyxin B 1 µg/mL)	bacterial growth OD600 (polymyxin B 0.75 µg/mL)
CC(C)CN(C)C(=O)c1coc(COc2cccc(F)c2F)n1	0.929	–
COCCC(=O)N1CCC(Oc2ccc(C(=O)N3CCCC(COC)C3)cc2)CC1 (stereo not given)	0.811	–
COc1ccccc1CN1C[C@@H]2C[C@@H](c3ccccc3C(F)(F)F)N3CCC[C@@]23C1=O	–	0.428
CCN(CC1CCN(CCc2ccccc2C)CC1)C(=O)C1=CCCC1	0.917	–
CN(CCn1ccnc1)c1ccc(-c2nc(Cc3ccc(F)cc3)no2)cn1	–	0.693
CC1CN(CC(=O)NCC(c2cccnc2)N2CCOCC2)Cc2cc(Cl)ccc2O1 (stereo not given)	–	0.74
COc1cc(CN2CCN(Cc3cccc(SC)c3)CC2CCO)cc(OC)c1 (stereo not given)	0.924	–
COCC(=O)Nc1cc(C(=O)N(C)Cc2ccc3nccnc3c2)c2c(c1)nc(C1CCC1)n2C	–	0.954
COc1cccc(OCc2nc(C(=O)N(C)Cc3csc(C)n3)co2)c1	1.01	–
CCOc1ccc2nc(N3CCCC(C(=O)NCCCn4cccn4)C3)nc(C)c2c1 (stereo not given)	–	0.44
COCCN(C(=O)c1csc2nc(-c3cccc(Cl)c3)cn12)C(C)C	–	0.681
Cc1nc(N2CCC(C(=O)N(C)Cc3ccsc3)CC2)nc2ccccc12	–	0.777
CC(C)c1ccc(NC2CCCN(C(=O)c3ccc4c(c3)OCO4)C2)cc1 (stereo not given)	0.005	–
C=C(C)CNc1ccc(C(=O)N2CCC(Cn3cccn3)CC2)cn1	1.2	–
CCOc1cc(CN2CCC(C(Cc3ccccc3)N(C(=O)c3ccco3)C3CC3)CC2)ccc1O (stereo not given)	–	0.878
COCCN1CCN(Cc2nc(Cc3ccc(OC)c(OC)c3)no2)CC1	0.821	–
CC#CC(=O)N1CCCC(CCc2ccc(OC)cc2)C1 (stereo not given)	–	0.566
Cc1ccccc1Oc1ncccc1CNC(=O)c1ccnn1C	–	0.916
Cc1c(C(C)NC2CCN(C(C)C)CC2)cnn1-c1ccc(F)cc1F (stereo not given)	0.914	–
O=C(CCC1CCN(C(=O)[C@H]2C[C@@H]3C=C[C@H]2C3)CC1)N1CCC(Cc2ccccc2)CC1	1.04	–

Reformatted as labelled records: entries from further up
COc1cc(CN2CCN(Cc3cccc(SC)c3)CC2CCO)cc(OC)c1 (stereo not given)
  bacterial growth OD600 (polymyxin B 1 µg/mL): 0.924
COCC(=O)Nc1cc(C(=O)N(C)Cc2ccc3nccnc3c2)c2c(c1)nc(C1CCC1)n2C
  bacterial growth OD600 (polymyxin B 0.75 µg/mL): 0.954
